Data source: PubChem BioAssay AID493246 (Drosophila RNAi Screening Center, 2011)
Test: 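Identify essential fly genes by loss of cell viability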 (primary screen). System: Drosophila Kc and S2R+ cells. Reagent: long dsRNA against Drosophila genes. Detection: 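Cell number per well after knock-down, printed as raw plate values; calls were based on per-plate z-scores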. Reading the numbers: Kc cell number and S2R+ cell number: higher = more cells remaining. Hit rule: 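Counted as a hit if cell number falls by a z-score of at least 3 within its plate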.
The screen tested about 21,000 reagents; below is an unselected part of those with a known target gene and a result. In the full data, 429 (2%) are marked active. 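Values are raw and not normalised between plates; calls rest on per-plate z-scores that were not deposited.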 Names joined by + are all predicted targets of the reagent. Not given: the amount of reagent, the time to read-out.

no.	gene	dsRNA	Kc cell number, rep 1	Kc cell number, rep 2	S2R+ cell number, rep 1	S2R+ cell number, rep 2	activity call
1	Prp6 (pre-mRNA processing factor 6)	DRSC10724	1.66e6	1.71e6	1.07e6	1.22e6	inactive
2	CG31710	DRSC01089	1.38e6	1.39e6	1.07e6	1.16e6	inactive
3	CG12851	DRSC04131	1.58e6	1.52e6	1.24e6	1.35e6	inactive
4	kar (karmoisin)	DRSC14496	1.46e6	1.49e6	1.26e6	1.35e6	inactive
5	CG9812	DRSC04566	1.49e6	1.62e6	1.20e6	1.34e6	inactive
6	CG13838	DRSC14688	1.44e6	1.39e6	9.81e5	1.10e6	inactive
7	CG42306 + Gint3	DRSC06934	1.28e6	1.31e6	1.08e6	1.09e6	inactive
8	IFT43 (Intraflagellar transport 43)	DRSC02892	1.39e6	1.51e6	1.26e6	1.23e6	inactive
9	Amun	DRSC19847	1.38e6	1.34e6	1.00e6	1.07e6	inactive
10	nw (narrow)	DRSC06749	1.37e6	1.46e6	1.19e6	1.16e6	inactive
11	nw (narrow)	DRSC06896	1.49e6	1.55e6	1.22e6	1.35e6	inactive
12	FucTA (alpha1,3-fucosyltransferase A)	DRSC10733	1.37e6	1.45e6	1.27e6	1.32e6	inactive
13	Clp (Clipper)	DRSC00746	1.40e6	1.45e6	9.83e5	1.14e6	inactive
14	nord	DRSC04210	1.50e6	1.59e6	1.24e6	1.34e6	inactive
15	nord	DRSC04361	1.55e6	1.64e6	1.18e6	1.31e6	inactive
16	CG14420	DRSC17917	1.58e6	1.65e6	9.73e5	1.10e6	inactive
17	Pof (Painting of fourth)	DRSC04405	1.44e6	1.61e6	1.15e6	1.25e6	inactive
18	CG14205	DRSC19560	1.66e6	1.66e6	1.14e6	1.29e6	inactive
19	TTLL1B (Tubulin tyrosine ligase-like 1B)	DRSC08594	1.39e6	1.43e6	1.12e6	1.19e6	inactive
20	polybromo	DRSC14307	1.49e6	1.60e6	1.21e6	1.27e6	inactive
21	mfrn (mitoferrin)	DRSC15687	1.50e6	1.53e6	6.86e5	7.88e5	inactive
22	E2f2 (E2F transcription factor 2)	DRSC03320	1.34e6	1.43e6	1.04e6	1.11e6	inactive
23	ths (thisbe)	DRSC06153	1.20e6	1.44e6	8.04e5	9.05e5	inactive
24	CG13623	DRSC14625	1.52e6	1.66e6	7.04e5	8.48e5	inactive

Laid out differently: entries from further up
CG42306 + Gint3 [DRSC06934] — Kc cell number, rep 1 = 1.28e6; Kc cell number, rep 2 = 1.31e6; S2R+ cell number, rep 1 = 1.08e6; S2R+ cell number, rep 2 = 1.09e6; activity call = inactive
IFT43 (Intraflagellar transport 43) [DRSC02892] — Kc cell number, rep 1 = 1.39e6; Kc cell number, rep 2 = 1.51e6; S2R+ cell number, rep 1 = 1.26e6; S2R+ cell number, rep 2 = 1.23e6; activity call = inactive
Amun [DRSC19847] — Kc cell number, rep 1 = 1.38e6; Kc cell number, rep 2 = 1.34e6; S2R+ cell number, rep 1 = 1.00e6; S2R+ cell number, rep 2 = 1.07e6; activity call = inactive
